From PMC12696947

By UniProt entry, the sequences of proteins in these tests, tags left out.
UniProt Q92585: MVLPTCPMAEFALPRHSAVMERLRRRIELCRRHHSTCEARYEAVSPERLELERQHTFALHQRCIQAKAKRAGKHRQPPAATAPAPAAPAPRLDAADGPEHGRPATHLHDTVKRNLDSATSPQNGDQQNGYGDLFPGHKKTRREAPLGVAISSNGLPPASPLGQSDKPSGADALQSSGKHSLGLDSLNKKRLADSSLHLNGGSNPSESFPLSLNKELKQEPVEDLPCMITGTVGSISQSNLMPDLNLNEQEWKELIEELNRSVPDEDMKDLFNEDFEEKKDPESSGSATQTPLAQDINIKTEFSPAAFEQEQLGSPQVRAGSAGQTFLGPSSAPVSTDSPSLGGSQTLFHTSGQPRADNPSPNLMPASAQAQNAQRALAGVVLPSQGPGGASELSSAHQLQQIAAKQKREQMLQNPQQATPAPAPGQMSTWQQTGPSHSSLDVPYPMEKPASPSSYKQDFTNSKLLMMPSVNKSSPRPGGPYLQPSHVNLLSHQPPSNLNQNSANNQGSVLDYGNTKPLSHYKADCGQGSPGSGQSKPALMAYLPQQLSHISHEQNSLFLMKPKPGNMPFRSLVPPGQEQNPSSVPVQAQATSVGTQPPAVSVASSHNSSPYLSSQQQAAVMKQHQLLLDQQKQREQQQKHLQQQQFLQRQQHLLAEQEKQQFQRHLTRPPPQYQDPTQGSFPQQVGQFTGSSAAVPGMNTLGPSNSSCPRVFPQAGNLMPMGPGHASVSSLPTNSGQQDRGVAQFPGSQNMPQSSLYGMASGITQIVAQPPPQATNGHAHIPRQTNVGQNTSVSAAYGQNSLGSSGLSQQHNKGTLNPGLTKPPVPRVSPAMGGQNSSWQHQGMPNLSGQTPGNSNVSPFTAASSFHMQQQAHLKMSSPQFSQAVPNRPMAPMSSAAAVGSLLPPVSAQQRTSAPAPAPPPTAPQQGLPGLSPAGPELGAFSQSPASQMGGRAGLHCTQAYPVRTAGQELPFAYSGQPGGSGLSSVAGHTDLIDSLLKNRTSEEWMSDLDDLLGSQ
UniProt P40763: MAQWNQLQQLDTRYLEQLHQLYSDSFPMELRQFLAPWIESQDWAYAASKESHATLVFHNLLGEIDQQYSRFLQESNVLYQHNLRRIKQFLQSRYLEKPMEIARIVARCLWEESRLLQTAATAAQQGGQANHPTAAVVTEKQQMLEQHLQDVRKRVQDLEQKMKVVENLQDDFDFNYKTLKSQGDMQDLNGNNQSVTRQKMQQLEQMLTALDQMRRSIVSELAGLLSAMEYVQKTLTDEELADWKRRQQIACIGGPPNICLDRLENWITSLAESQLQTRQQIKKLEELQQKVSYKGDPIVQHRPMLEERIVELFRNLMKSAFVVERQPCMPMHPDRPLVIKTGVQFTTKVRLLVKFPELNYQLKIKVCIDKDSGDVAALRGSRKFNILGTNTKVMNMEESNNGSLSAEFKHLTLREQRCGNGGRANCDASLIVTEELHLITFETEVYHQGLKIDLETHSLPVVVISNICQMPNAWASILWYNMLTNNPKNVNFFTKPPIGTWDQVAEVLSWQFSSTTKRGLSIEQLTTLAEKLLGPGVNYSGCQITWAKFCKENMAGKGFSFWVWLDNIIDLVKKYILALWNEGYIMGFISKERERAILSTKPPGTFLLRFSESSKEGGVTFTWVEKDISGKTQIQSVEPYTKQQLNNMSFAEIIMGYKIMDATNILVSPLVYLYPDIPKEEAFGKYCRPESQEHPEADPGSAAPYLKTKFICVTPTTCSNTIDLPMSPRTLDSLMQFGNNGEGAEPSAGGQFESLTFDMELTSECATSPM

Molecular target: MAML1 (endogenous) (human (endogenous in HepG2)) (UniProt Q92585)
Assay: affinity purification with mass spectrometry; MAML1 complex precipitated from HCC cells; precipitates digested with trypsin and chymotrypsin, LC-MS/MS, MaxQuant search

STAT3 (endogenous) (from UniProt P40763 1-770)
binding: binds

No constants are given. Whether binding was seen depends on the method and setting. In cells and extracts the contact can be indirect. A yes stands for co-enrichment or nearness to the bait. Other partners may have been found.
